Measurements reported in patent US20180133190A1, “MONOACYLGLYCEROLS AND FAT-SOLUBLE NUTRIENTS FOR USE IN THE TREATMENT OF NUTRIENT DEFICIENCY FROM MALDIGESTION” (NESTEC S.A., priority 2013, published 2018).
At least one compound was matched to its structure with a doubt left.

Assay: clinical study: delivery of EPA under lipid maldigestion conditions induced by XENICAL (ORLISTAT)
Assay type: in vivo
Details: humans, with XENICAL (ORLISTAT), relative to fish oil and XENICAL; p=0.0125; FIG. 4
Method: This clinical study compared the efficacy of sn-1(3) MAG and fish oil (TAG) in delivering EPA in humans under lipid maldigestion conditions induced by XENICAL® (ORLISTAT). The comparison was tested in volunteers having a BMI of 37-40 kg/m2 and treated with XENICAL® (ORLISTAT) to induce lipid maldigestion or not treated with XENICAL® (ORLISTAT). The primary objective was to assess accretion of EPA in erythrocytes over 21 days when consumed as fish oil (TAG) or sn-1(3) MAG. The secondary objectives were to assess accretion of EPA in plasma over 21 days and also to assess the pharmacokinetics of EPA after an acute dose either in the form of sn-1(3) MAG or TAG (AUC in chylomicrons over 10 hours postprandial).

CC/C=C\C/C=C\C/C=C\C/C=C\C/C=C\CCCC(=O)OCC(O)CO (stereo not shown) [sn-1(3) MAG that contained EPA, sn-1(3)-monoeicosapentaenoylglycerol]
acute effect: EPA in chylomicrons, AUC over 10 hours postprandial: statistically significant
